PubChem BioAssay AID248 (DTP/NCI, 2004)
The list does not hold the whole screen: it is rich in T/C values a quarter to a half above the control, in often repeated tests (any T/C) and in doses without a T/C. Other doses and runs of a compound stand elsewhere. T/C: endpoint of the treated group in % of that of the vehicle group. Some doses have a count of surviving animals in place of a T/C: the source files T/C as zero there, which appears to mark a toxic dose or a test without result, not a measured value. Some survivor counts are full or nearly so, which does not show that the dose was tolerated: survival well below the control is almost never listed, so the zero probably covers shortened survival too. Survivors were counted at the toxicity check, usually on the fifth day, unless a day is given; later deaths do not show. Schedules are NCI's codes, read here as Q, the interval in days (D) or hours (H), X, the number of doses. Some entries hold several experiments; their values stand side by side, smallest first. Some schedule codes hold Z or #, which are not explained here. Where survival is the endpoint, this PubChem deposit counts one and a half times the control or more as active, and values a quarter to a half above the control carry no call in these data; other NCI protocols may use other cut-offs. Signs of the kind (2×) count equal records among those shown. Some T/C values carry the count of animals alive at the toxicity check (mostly the fifth day); without a count, all were alive then.

Tested on: L1210 leukemia ip in BDF1 mice, survival T/C
Experiment: NCI In Vivo Anticancer Drug Screen. Data for tumor model L1210 Leukemia (intraperitoneal) in B6D2F1 (BDF1) mice
Details: higher T/C = longer survival

SMILES: CN(N=O)C(=O)N[C@@H](C=O)[C@@H](O)[C@H](O)[C@H](O)CO
- T/C (T/C endpoint: mean survival time, dose: 12.5 mg/kg/injection, schedule: Q01DX009 (ip), vehicle: water): 146 % of control
- T/C (T/C endpoint: mean survival time, dose: 12.6 mg/kg/injection, schedule: Q01DX Z (ip), vehicle: water): 125 % of control
- T/C (T/C endpoint: mean survival time, dose: 18.0 mg/kg/injection, schedule: Q01DX009 (ip), vehicle: other): 99, 105, 109, 130 % of control
- T/C (T/C endpoint: mean survival time, dose: 24.6 mg/kg/injection, schedule: Q01DX Z (ip), vehicle: water): 143 % of control
- T/C (T/C endpoint: mean survival time, dose: 25.0 mg/kg/injection, schedule: Q01DX009 (ip), vehicle: citric acid): 136 % of control
- T/C (T/C endpoint: mean survival time, dose: 25.0 mg/kg/injection, schedule: Q01DX009 (ip), vehicle: saline, evaluated on day 18): 107 % of control
- T/C (T/C endpoint: mean survival time, dose: 25.0 mg/kg/injection, schedule: Q01DX009 (ip), vehicle: saline, evaluated on day 23): 109 % of control
- T/C (T/C endpoint: mean survival time, dose: 25.0 mg/kg/injection, schedule: Q01DX009 (ip), vehicle: saline, evaluated on day 30): 112 % of control
- T/C (T/C endpoint: mean survival time, dose: 25.0 mg/kg/injection, schedule: Q01DX009 (ip), vehicle: saline, evaluated on day 60): 101 and 103 % of control
- T/C (T/C endpoint: mean survival time, dose: 32.0 mg/kg/injection, schedule: Q01DX017 (ip), vehicle: other): 130 % of control
- T/C (T/C endpoint: mean survival time, dose: 33.0 mg/kg/injection, schedule: Q04DX002 (ip), vehicle: other): 97, 103, 105, 106 % of control
- T/C (T/C endpoint: mean survival time, dose: 35.0 mg/kg/injection, schedule: Q01DX009 (ip), vehicle: other): 110, 126, 131, 133 % of control
- T/C (T/C endpoint: mean survival time, dose: 50.0 mg/kg/injection, schedule: Q01DX009 (ip), vehicle: other): 137 % of control
- T/C (T/C endpoint: mean survival time, dose: 50.0 mg/kg/injection, schedule: Q01DX009 (ip), vehicle: saline, evaluated on day 18): 112 % of control
- T/C (T/C endpoint: mean survival time, dose: 50.0 mg/kg/injection, schedule: Q01DX009 (ip), vehicle: saline, evaluated on day 23): 100 % of control
- T/C (T/C endpoint: mean survival time, dose: 50.0 mg/kg/injection, schedule: Q01DX009 (ip), vehicle: saline, evaluated on day 30): 134 % of control
- T/C (T/C endpoint: mean survival time, dose: 50.0 mg/kg/injection, schedule: Q01DX009 (ip), vehicle: saline, evaluated on day 60): 100 and 103 % of control
- T/C (T/C endpoint: mean survival time, dose: 50.0 mg/kg/injection, schedule: Q01DX009 (ip), vehicle: water): 137, 143, 148 % of control
- T/C (T/C endpoint: mean survival time, dose: 50.0 mg/kg/injection, schedule: Q01DX Z (ip), vehicle: water): 137 % of control
- T/C (T/C endpoint: mean survival time, dose: 64.0 mg/kg/injection, schedule: Q01DX017 (ip), vehicle: other): 128 % of control
- T/C (T/C endpoint: mean survival time, dose: 64.0 mg/kg/injection, schedule: Q02DX009 (ip), vehicle: other): 131 % of control
- T/C (T/C endpoint: mean survival time, dose: 64.0 mg/kg/injection, schedule: Q## X009 (ip), vehicle: other): 140 % of control
- T/C (T/C endpoint: mean survival time, dose: 65.0 mg/kg/injection, schedule: Q04DX002 (ip), vehicle: other): 101, 103, 110, 116 % of control
- T/C (T/C endpoint: mean survival time, dose: 67.0 mg/kg/injection, schedule: Q01DX009 (ip), vehicle: citric acid): 148 % of control
- T/C (T/C endpoint: mean survival time, dose: 69.0 mg/kg/injection, schedule: Q01DX009 (ip), vehicle: other): 133, 135, 147, 156 % of control
- T/C (T/C endpoint: mean survival time, dose: 99.5 mg/kg/injection, schedule: Q01DX Z (ip), vehicle: water): 136 % of control
- T/C (T/C endpoint: mean survival time, dose: 99.6 mg/kg/injection, schedule: Q01DX Z (ip), vehicle: water): 145 % of control
- T/C (T/C endpoint: mean survival time, dose: 100.0 mg/kg/injection, schedule: Q01DX009 (ip), vehicle: saline, evaluated on day 18): 121 % of control
- T/C (T/C endpoint: mean survival time, dose: 100.0 mg/kg/injection, schedule: Q01DX009 (ip), vehicle: saline, evaluated on day 23): 100 % of control
- T/C (T/C endpoint: mean survival time, dose: 100.0 mg/kg/injection, schedule: Q01DX009 (ip), vehicle: saline, evaluated on day 30): 155 % of control
- T/C (T/C endpoint: mean survival time, dose: 100.0 mg/kg/injection, schedule: Q01DX009 (ip), vehicle: saline, evaluated on day 60): 102 and 103 % of control
- T/C (T/C endpoint: mean survival time, dose: 100.0 mg/kg/injection, schedule: Q01DX009 (ip), vehicle: water): 138 % of control
- T/C (T/C endpoint: mean survival time, dose: 100.0 mg/kg/injection, schedule: Q04DX002 (ip), vehicle: saline): 126 % of control
- survivor count (T/C endpoint: mean survival time, dose: 128.0 mg/kg/injection, schedule: Q01DX017 (ip), vehicle: other): 10 of 10
- T/C (T/C endpoint: mean survival time, dose: 128.0 mg/kg/injection, schedule: Q## X009 (ip), vehicle: other): 125 % of control [9 of 10 alive]
- T/C (T/C endpoint: mean survival time, dose: 130.0 mg/kg/injection, schedule: Q04DX002 (ip), vehicle: other): 107, 116 (2×), 129 % of control
- survivor count (T/C endpoint: mean survival time, dose: 138.0 mg/kg/injection, schedule: Q01DX009 (ip), vehicle: other): 6 of 6
- T/C (T/C endpoint: mean survival time, dose: 150.0 mg/kg/injection, schedule: Q01DX009 (ip), vehicle: citric acid): 128 % of control
- survivor count (T/C endpoint: mean survival time, dose: 200.0 mg/kg/injection, schedule: Q01DX009 (ip), vehicle: citric acid): 7 of 10
- survivor count (T/C endpoint: mean survival time, dose: 200.0 mg/kg/injection, schedule: Q01DX009 (ip), vehicle: other): 3 of 6
- T/C (T/C endpoint: mean survival time, dose: 200.0 mg/kg/injection, schedule: Q01DX009 (ip), vehicle: saline, evaluated on day 18): 112 % of control
- T/C (T/C endpoint: mean survival time, dose: 200.0 mg/kg/injection, schedule: Q01DX009 (ip), vehicle: saline, evaluated on day 23): 106 % of control
- T/C (T/C endpoint: mean survival time, dose: 200.0 mg/kg/injection, schedule: Q01DX009 (ip), vehicle: saline, evaluated on day 30): 107 % of control
- T/C (T/C endpoint: mean survival time, dose: 200.0 mg/kg/injection, schedule: Q01DX009 (ip), vehicle: saline, evaluated on day 60): 91 % of control
- survivor count (T/C endpoint: mean survival time, dose: 200.0 mg/kg/injection, schedule: Q01DX009 (ip), vehicle: water): 0 of 6
- survivor count (T/C endpoint: mean survival time, dose: 200.0 mg/kg/injection, schedule: Q01DX Z (ip), vehicle: water): 7 of 7
- T/C (T/C endpoint: mean survival time, dose: 200.0 mg/kg/injection, schedule: Q04DX002 (ip), vehicle: acid diluted with saline): 142 % of control
- T/C (T/C endpoint: mean survival time, dose: 200.0 mg/kg/injection, schedule: Q04DX002 (ip), vehicle: saline): 134 and 149 % of control
- survivor count (T/C endpoint: mean survival time, dose: 256.0 mg/kg/injection, schedule: Q01DX017 (ip), vehicle: other): 0 of 10
- survivor count (T/C endpoint: mean survival time, dose: 256.0 mg/kg/injection, schedule: Q02DX009 (ip), vehicle: other): 9 of 10
- survivor count (T/C endpoint: mean survival time, dose: 256.0 mg/kg/injection, schedule: Q## X009 (ip), vehicle: other): 0 of 10
- T/C (T/C endpoint: mean survival time, dose: 259.0 mg/kg/injection, schedule: Q04DX002 (ip), vehicle: other): 114, 120, 130, 147 % of control
- T/C (T/C endpoint: mean survival time, dose: 350.0 mg/kg/injection, schedule: Q01DX001 (ip), vehicle: citric acid): 142 % of control [8 of 10 alive]
- T/C (T/C endpoint: mean survival time, dose: 400.0 mg/kg/injection, schedule: Q01DX001 (ip), vehicle: citric acid): 127 % of control [9 of 10 alive]
- survivor count (T/C endpoint: mean survival time, dose: 400.0 mg/kg/injection, schedule: Q01DX001 (ip), vehicle: other): 2 of 6
- survivor count (T/C endpoint: mean survival time, dose: 400.0 mg/kg/injection, schedule: Q04DX002 (ip), vehicle: acid diluted with saline): 3 of 3
- survivor count (T/C endpoint: mean survival time, dose: 500.0 mg/kg/injection, schedule: Q04DX002 (ip), vehicle: acid diluted with saline): 0 of 3
- survivor count (T/C endpoint: mean survival time, dose: 518.0 mg/kg/injection, schedule: Q04DX002 (ip), vehicle: other): 1 of 6
- T/C (T/C endpoint: median survival time, dose: 23.0 mg/kg/injection, schedule: Q01DX009 (ip), vehicle: Klucel (hydroxypropylcellulose) (HPC)): 133 % of control
- T/C (T/C endpoint: median survival time, dose: 39.0 mg/kg/injection, schedule: Q01DX009 (ip), vehicle: water): 132 % of control
- T/C (T/C endpoint: median survival time, dose: 58.0 mg/kg/injection, schedule: Q01DX009 (ip), vehicle: water): 129 and 139 % of control
- T/C (T/C endpoint: median survival time, dose: 65.0 mg/kg/injection, schedule: Q01DX009 (ip), vehicle: Klucel (hydroxypropylcellulose) (HPC)): 138 % of control
- T/C (T/C endpoint: median survival time, dose: 87.0 mg/kg/injection, schedule: Q01DX009 (ip), vehicle: water): 125 % of control
- T/C (T/C endpoint: median survival time, dose: 108.0 mg/kg/injection, schedule: Q01DX009 (ip), vehicle: Klucel (hydroxypropylcellulose) (HPC)): 127 % of control
- survivor count (T/C endpoint: median survival time, dose: 130.0 mg/kg/injection, schedule: Q01DX009 (ip), vehicle: water): 7 of 8
- survivor count (T/C endpoint: median survival time, dose: 200.0 mg/kg/injection, schedule: Q01DX009 (ip), vehicle: water): 4 of 8 and 8 of 8
